# Data: the supplement of paper PMC4604168 (melanoma cell lines)
# The list shows a part of the results. Single values are uncertain, as repeats are few or missing.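 Imaging used 1,536-well plates; nuclei positive for cleaved PARP by antibody were divided by total DNA-stained nuclei to yield the apoptosis fraction. Doses for screening kept most cells viable, and cell lines differ markedly in resting and induced cleaved-PARP levels.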
# Tests used:
# Assay in all cases: cleaved PARP positive nuclei fraction relative to DMSO control; melanoma cells; higher = more apoptosis
# Details in all cases: library dose: low library concentration; 72 h
# [1] = test system: 501Mel
# [2] = test system: A101D
# [3] = test system: A2058
# [4] = test system: A375
# [5] = test system: C32
# [6] = test system: CBRC008 (line from a melanoma biopsy)
# [7] = test system: CBRC014 (line from a melanoma biopsy)
# [8] = test system: CBRC016 (line from a melanoma biopsy)
# [9] = test system: CBRC017 (line from a melanoma biopsy)
# [10] = test system: CBRC034 (line from a melanoma biopsy)
# [11] = test system: COLO792
# [12] = test system: COLO800
# [13] = test system: COLO829
# [14] = test system: G361
# [15] = test system: IPC-298
# [16] = test system: IST-MEL1
# [17] = test system: LB2518-MEL
# [18] = test system: LOXIMVI
# [19] = test system: MEL-HO
SMILES,cleaved PARP positive nuclei fraction [1] [%],cleaved PARP positive nuclei fraction [2] [%],cleaved PARP positive nuclei fraction [3] [%],cleaved PARP positive nuclei fraction [4] [%],cleaved PARP positive nuclei fraction [5] [%],cleaved PARP positive nuclei fraction [6] [%],cleaved PARP positive nuclei fraction [7] [%],cleaved PARP positive nuclei fraction [8] [%],cleaved PARP positive nuclei fraction [9] [%],cleaved PARP positive nuclei fraction [10] [%],cleaved PARP positive nuclei fraction [11] [%],cleaved PARP positive nuclei fraction [12] [%],cleaved PARP positive nuclei fraction [13] [%],cleaved PARP positive nuclei fraction [14] [%],cleaved PARP positive nuclei fraction [15] [%],cleaved PARP positive nuclei fraction [16] [%],cleaved PARP positive nuclei fraction [17] [%],cleaved PARP positive nuclei fraction [18] [%],cleaved PARP positive nuclei fraction [19] [%]
"O=c1[nH]nc(Sc2ncc([N+](=O)[O-])s2)n1-c1ccc2c(c1)OCCO2 + CNC(=O)c1cc(Oc2ccc(NC(=O)Nc3ccc(Cl)c(C(F)(F)F)c3)cc2)ccn1 [sorafenib] (first compound 0.2 µM, partner dose 0.4 µM)",93.9,48.3,70.9,98.8,74.4,158,78.4,30.6,78.1,58.2,89.9,29.5,60.5,78.2,46.1,122,102,93,58.9
"COc1cc([C@@H]2c3cc4c(cc3[C@@H](O[C@@H]3O[C@@H]5CO[C@@H](C)O[C@H]5[C@H](O)[C@H]3O)[C@H]3COC(=O)[C@H]23)OCO4)cc(OC)c1O [etoposide] + CC(C)C[C@H](NC(=O)[C@H](Cc1ccccc1)NC(=O)c1cnccn1)B(O)O [Bortezomib] (first compound 0.02 µM, partner dose 0.001 µM)",954,442,68,175,96,297,134,248,258,97.8,112,33.5,71.2,2270,161,127,685,74.8,122
"O=C(Nc1cc(C(F)(F)F)cc(C(F)(F)F)c1)c1cc(Cl)ccc1O + CS(=O)(=O)CCNCc1ccc(-c2ccc3ncnc(Nc4ccc(OCc5cccc(F)c5)c(Cl)c4)c3c2)o1 [lapatinib] (first compound 0.016 µM, partner dose 0.8 µM)",59.1,169,96.6,184,148,38.1,115,103,245,127,63.8,126,101,29.4,60.6,136,94,121,128
"CCCCCCCCCCCCCCCCCCOP(=O)([O-])OC1CC[N+](C)(C)CC1 [Perifosine] + C=CCNC1=C2C[C@@H](C)C[C@H](OC)[C@H](O)[C@@H](C)/C=C(\C)[C@H](OC(N)=O)[C@@H](OC)/C=C\C=C(/C)C(=O)NC(=CC1=O)C2=O [Tanespimycin] (first compound 0.4 µM, partner dose 0.002 µM)",33.1,74.1,64,223,105,27.6,102,139,88.2,196,97.7,85.4,175,111,90.2,203,91.8,130,45.6
"N#CC[C@H](C1CCCC1)n1cc(-c2ncnc3[nH]ccc23)cn1 [ruxolitinib] + Nc1ccn([C@@H]2O[C@H](CO)[C@@H](O)C2(F)F)c(=O)n1 [gemcitabine] (first compound 1 µM, partner dose 0.0004 µM)",99.4,121,50.7,121,74.7,126,141,272,319,72.6,98.5,46.7,72.8,165,62.4,54.9,93.2,101,62.1
"Cc1cc(Nc2cc(N3CCN(C)CC3)nc(Sc3ccc(NC(=O)C4CC4)cc3)n2)n[nH]1 [Tozasertib] + C=C(c1ccc(C(=O)O)cc1)c1cc2c(cc1C)C(C)(C)CCC2(C)C [Bexarotene] (first compound 0.006 µM, partner dose 2 µM)",91.4,100,93.9,63,85.5,60.9,84.6,64.6,162,34.1,32.8,84.4,127,132,46.5,72.1,118,26.4,68
"N#CC[C@H](C1CCCC1)n1cc(-c2ncnc3[nH]ccc23)cn1 [ruxolitinib] + Cn1cnc2c(F)c(Nc3ccc(Br)cc3Cl)c(C(=O)NOCCO)cc21 [selumetinib] (first compound 1 µM, partner dose 0.015 µM)",78,83.5,186,71.8,149,60.8,83.7,153,173,179,75.5,64.3,52.4,72.7,93.1,85.5,128,106,159
"COc1cc([C@@H]2c3cc4c(cc3[C@@H](O[C@@H]3O[C@@H]5CO[C@@H](C)O[C@H]5[C@H](O)[C@H]3O)[C@H]3COC(=O)[C@H]23)OCO4)cc(OC)c1O [etoposide] + C[C@]1(O)C[C@@H](c2nc(-c3ccc4ccc(-c5ccccc5)nc4c3)c3c(N)nccn32)C1 [OSI906] (first compound 0.02 µM, partner dose 0.4 µM)",81.9,64.2,409,267,80,79,103,23.9,84.3,30.6,14.1,143,71.9,101,47.2,61.6,53.8,146,160
"O=C(/C=C/c1cccnc1)NCCCCC1CCN(C(=O)c2ccccc2)CC1 + C=CCNC1=C2C[C@@H](C)C[C@H](OC)[C@H](O)[C@@H](C)/C=C(\C)[C@H](OC(N)=O)[C@@H](OC)/C=C\C=C(/C)C(=O)NC(=CC1=O)C2=O [Tanespimycin] (first compound 0.01 µM, partner dose 0.002 µM)",94.5,198,115,140,183,3170,113,687,696,609,517,169,166,3960,382,101,319,296,435
"CC[C@]1(O)C[C@H]2CN(CCc3c([nH]c4ccccc34)[C@@](C(=O)OC)(c3cc4c(cc3OC)N(C=O)[C@H]3[C@@](O)(C(=O)OC)[C@H](OC(C)=O)[C@]5(CC)C=CCN6CC[C@]43[C@@H]65)C2)C1 [vincristine] + COCC[n+]1c2c(n(Cc3cnccn3)c1C)C(=O)c1ccccc1C2=O [YM155] (first compound 0.0001 µM, partner dose 0.0004 µM)",80.7,91.1,288,164,81.2,195,94,135,90.2,88.8,124,48.6,163,135,136,69.5,220,64.8,129
"CC[C@]1(O)C[C@H]2CN(CCc3c([nH]c4ccccc34)[C@@](C(=O)OC)(c3cc4c(cc3OC)N(C=O)[C@H]3[C@@](O)(C(=O)OC)[C@H](OC(C)=O)[C@]5(CC)C=CCN6CC[C@]43[C@@H]65)C2)C1 [vincristine] + CS(=O)(=O)CCNCc1ccc(-c2ccc3ncnc(Nc4ccc(OCc5cccc(F)c5)c(Cl)c4)c3c2)o1 [lapatinib] (first compound 0.0001 µM, partner dose 0.8 µM)",199,224,2510,1570,230,162,160,273,138,87.3,227,110,286,107,148,218,249,79.9,169
"COc1cc([C@@H]2c3cc4c(cc3[C@@H](O[C@@H]3O[C@@H]5CO[C@@H](C)O[C@H]5[C@H](O)[C@H]3O)[C@H]3COC(=O)[C@H]23)OCO4)cc(OC)c1O [etoposide] + NC(=O)c1ccc(N(C(N)=O)c2c(F)cccc2F)nc1-c1ccc(F)cc1F [VX702] (first compound 0.02 µM, partner dose 0.4 µM)",129,41.3,124,101,72.9,40.5,91.2,109,82.6,49,95.1,119,92.5,112,45.6,61.3,104,99.2,69.1
"Cc1cn(-c2cc(NC(=O)c3ccc(C)c(Nc4nccc(-c5cccnc5)n4)c3)cc(C(F)(F)F)c2)cn1 [nilotinib] + CCCCCCCCc1ccc(CCC(N)(CO)CO)cc1 [fingolimod] (first compound 0.2 µM, partner dose 2 µM)",106,187,48.5,213,79,102,93.4,89.5,112,68.8,88.3,127,119,98.2,79.5,31,172,94.4,215
"CCCCCCCCCCCCCCCCCCOP(=O)([O-])OC1CC[N+](C)(C)CC1 [Perifosine] + Cn1sc(=O)n(Cc2ccccc2)c1=O [TDZD-8] (first compound 0.4 µM, partner dose 0.4 µM)",120,104,121,109,86.9,43.2,98.8,33.6,168,54.5,121,168,86.3,90.7,128,163,30.9,226,111
"O=C(Nc1cc(C(F)(F)F)cc(C(F)(F)F)c1)c1cc(Cl)ccc1O + CC1(C)CCC(c2ccc(Cl)cc2)=C(CN2CCN(c3ccc(C(=O)NS(=O)(=O)c4ccc(N[C@H](CCN5CCOCC5)CSc5ccccc5)c(S(=O)(=O)C(F)(F)F)c4)cc3)CC2)C1 [ABT263] (first compound 0.016 µM, partner dose 0.4 µM)",179,160,192,267,105,519,305,1070,474,162,223,43.8,48.3,86.1,299,156,52.2,124,170
"N#CC[C@H](C1CCCC1)n1cc(-c2ncnc3[nH]ccc23)cn1 [ruxolitinib] + CCCS(=O)(=O)Nc1ccc(F)c(C(=O)c2c[nH]c3ncc(Cl)cc23)c1F [PLX4720] (first compound 1 µM, partner dose 0.08 µM)",60.8,81.9,120,276,101,92.6,95.8,100,118,219,136,60.1,82.5,34.7,88.9,128,82.3,161,89.5

# Looked up one by one from the list above:
SMILES,cleaved PARP positive nuclei fraction [1] [%],cleaved PARP positive nuclei fraction [2] [%],cleaved PARP positive nuclei fraction [3] [%],cleaved PARP positive nuclei fraction [4] [%],cleaved PARP positive nuclei fraction [5] [%],cleaved PARP positive nuclei fraction [6] [%],cleaved PARP positive nuclei fraction [7] [%],cleaved PARP positive nuclei fraction [8] [%],cleaved PARP positive nuclei fraction [9] [%],cleaved PARP positive nuclei fraction [10] [%],cleaved PARP positive nuclei fraction [11] [%],cleaved PARP positive nuclei fraction [12] [%],cleaved PARP positive nuclei fraction [13] [%],cleaved PARP positive nuclei fraction [14] [%],cleaved PARP positive nuclei fraction [15] [%],cleaved PARP positive nuclei fraction [16] [%],cleaved PARP positive nuclei fraction [17] [%],cleaved PARP positive nuclei fraction [18] [%],cleaved PARP positive nuclei fraction [19] [%]
"Cc1cn(-c2cc(NC(=O)c3ccc(C)c(Nc4nccc(-c5cccnc5)n4)c3)cc(C(F)(F)F)c2)cn1 [nilotinib] + CCCCCCCCc1ccc(CCC(N)(CO)CO)cc1 [fingolimod] (first compound 0.2 µM, partner dose 2 µM)",106,187,48.5,213,79,102,93.4,89.5,112,68.8,88.3,127,119,98.2,79.5,31,172,94.4,215
"Cc1cc(Nc2cc(N3CCN(C)CC3)nc(Sc3ccc(NC(=O)C4CC4)cc3)n2)n[nH]1 [Tozasertib] + C=C(c1ccc(C(=O)O)cc1)c1cc2c(cc1C)C(C)(C)CCC2(C)C [Bexarotene] (first compound 0.006 µM, partner dose 2 µM)",91.4,100,93.9,63,85.5,60.9,84.6,64.6,162,34.1,32.8,84.4,127,132,46.5,72.1,118,26.4,68
